{
  "source": "patent US20250283871A1",
  "about": "“COMPOSITIONS AND METHODS FOR MODULATING THE INTERACTION BETWEEN SS18-SSX FUSION ONCOPROTEIN AND NUCLEOSOMES” (Dana-Farber Cancer Institute, Inc., priority 2020, published 2025)",
  "tested_on": "BAF complex subunits and histone proteins",
  "assay": "Mass spectrometry proteomics of purified HA-SS18 WT and HA-SS18-SSX1 complexes (Tables 5A-5E)",
  "design": "species or system human",
  "settings": "HEK-293T; for Total (total peptides) / Unique (unique peptides): HA-SS18SSX1 purification, NE (soluble nuclear extract) fraction, peptides per identified protein; for Total (peptides) / Unique (peptides): HA-SS18WT_NE_peptides: HA-SS18 WT complexes purified from nuclear extract (NE), label = protein identified (Gene Symbol)",
  "data": [
    {"molecule": "DHRS7B (protein, UniProt Q6IAN0 1-325, looked up) Dehydrogenase/reductase SDR …: MVSPATRKSLPKVKAMDFITSTAILPLLFGCLGVFGLFRLLQWVRGKAYLRNAVVVITGATSGLGKECAKVFYAAGAKLVLCGRNGGALEELIRELTASHATKVQTHKPYLVTFDLTDSGAIVAAAAEILQCFGYVDILVNNAGISYRGTIMDTTVDVDKRVMETNYFGPVALTKALLPSMIKRRQGHIVAISSIQGKMSIPFRSAYAASKHATQAFFDCLRAEMEQYEIEVTVISPGYIHTNLSVNAITADGSRYGVMDTTTAQGRSPVEVAQDVLAAVGKKKKDVILADLLPSLAVYLRTLAPGLFFSLMASRARKERKSKNS", "values": [
      {"measurement": "Total (total peptides)", "result": 3},
      {"measurement": "Unique (unique peptides)", "result": 3},
      {"measurement": "Total (peptides)", "result": 3},
      {"measurement": "Unique (peptides)", "result": 3}
    ]},
    {"molecule": "ATP2B4 (protein) MTNPSDRVLPANSMAESREGDFGCTVMELRKLMELRSRDALTQINVHYGGVQNLCSRLKTSPVEGLSGNPADLEKRRQVFGHNVIPPKKPKTFLELVWEALQDVTLIILEIAAIISLVLSFYRPAGEENELCGQVATTPEDENEAQAGWIEGAAILFSVIIVVLVTAFNDWSKEKQFRGLQCRIEQEQKFSIIRNGQLIQLPVAEIVVGDIAQVKYGDLLPADGILIQGNDLKIDESSLTGESDHVKKSLDKDPMLLSGTHVMEGSGRMVVTAVGVNSQTGIILTLLGVNEDDEGEKKKKGKKQGVPENRNKAKTQDGVALEIQPLNSQEGIDNEEKDKKAVKVPKKEKSVLQGKLTRLAVQIGKAGLLMSALTVFILILYFVIDNFVINRRPWLPECTPIYIQYFVKFFIIGITVLVVAVPEGLPLAVTISLAYSVKKMMKDNNLVRHLDACETMGNATAICSDKTGTLTMNRMTVVQAYIGGIHYRQIPSPDVFLPKVLDLIVNGISINSAYTSKILPPEKEGGLPRQVGNKTECALLGFVTDLKQDYQAVRNEVPEEKLYKVYTFNSVRKSMSTVIRNPNGGFRMYSKGASEIILRKCNRILDRKGEAVPFKNKDRDDMVRTVIEPMACDGLRTICIAYRDFDDTEPSWDNENEILTELTCIAVVGIEDPVRPEVPDAIAKCKQAGITVRMVTGDNINTARAIATKCGILTPGDDFLCLEGKEFNRLIRNEKGEVEQEKLDKIWPKLRVLARSSPTDKHTLVKGIIDSTVGEHRQVVAVTGDGTNDGPALKKADVGFAMGIAGTDVAKEASDIILTDDNFTSIVKAVMWGRNVYDSISKFLQFQLTVNVVAVIVAFTGACITQDSPLKAVQMLWVNLIMDTFASLALATEPPTESLLKRRPYGRNKPLISRTMMKNILGHAFYQLIVIFILVFAGEKFFDIDSGRKAPLHSPPSQHYTIVFNTFVLMQLFNEINSRKIHGEKNVFSGIYRNIIFCSVVLGTFICQIFIVEFGGKPFSCTSLSLSQWLWCLFIGIGELLWGQFISAIPTRSLKFLKEAGHGTTKEEITKDAEGLDEIDHAEMELRRGQILWFRGLNRIQTQIDVINTFQTGASFKGVLRRQNMGQHLDVKLVPSSSYIKVVKAFHSSLHESIQKPYNQKSIHSFMTHPEFAIEEELPRTPLLDEEEEENPDKASKFGTRVLLLDGEVTPYANTNNNAVDCNQVQLPQSDSSLQSLETSV", "values": [
      {"measurement": "Total (total peptides)", "result": 3},
      {"measurement": "Unique (unique peptides)", "result": 3},
      {"measurement": "Total (peptides)", "result": 2},
      {"measurement": "Unique (peptides)", "result": 2}
    ]},
    {"molecule": "ERAL1 (protein, UniProt O75616 44-437, looked up) GTPase Era, mitochondrial: VSCVAGSAFSGPRLASASRSNGQGSALDHFLGFSQPDSSVTPCVPAVSMNRDEQDVLLVHHPDMPENSRVLRVVLLGAPNAGKSTLSNQLLGRKVFPVSRKVHTTRCQALGVITEKETQVILLDTPGIISPGKQKRHHLELSLLEDPWKSMESADLVVVLVDVSDKWTRNQLSPQLLRCLTKYSQIPSVLVMNKVDCLKQKSVLLELTAALTEGVVNGKKLKMRQAFHSHPGTHCPSPAVKDPNTQSVGNPQRIGWPHFKEIFMLSALSQEDVKTLKQYLLTQAQPGPWEYHSAVLTSQTPEEICANIIREKLLEHLPQEVPYNVQQKTAVWEEGPGGELVIQQKLLVPKESYVKLLIGPKGHVISQIAQEAGHDLMDIFLCDVDIRLSVKLLK", "values": [
      {"measurement": "Total (total peptides)", "result": 3},
      {"measurement": "Unique (unique peptides)", "result": 3},
      {"measurement": "Total (peptides)", "result": 4},
      {"measurement": "Unique (peptides)", "result": 4}
    ]}
  ]
}
